Measurements published in patent US20250257064A1, “TRIFLUOROMETHYL-SUBSTITUTED SULFONAMIDE AS BCL-2-SELECTIVE INHIBITOR” (Chia Tai Tianqing Pharmaceutical Group Co., Ltd., priority 2018, published 2025).
The match of structure and compound is tentative.

By UniProt entry, the sequences of proteins in these tests, tags left out.
UniProt P10415, whole entry: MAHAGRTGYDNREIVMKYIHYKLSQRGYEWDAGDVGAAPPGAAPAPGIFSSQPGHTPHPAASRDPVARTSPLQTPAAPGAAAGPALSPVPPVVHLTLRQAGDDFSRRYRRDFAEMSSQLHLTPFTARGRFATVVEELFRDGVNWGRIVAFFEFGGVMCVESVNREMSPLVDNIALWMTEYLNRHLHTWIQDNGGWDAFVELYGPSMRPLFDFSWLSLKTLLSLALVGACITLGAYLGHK
UniProt Q07817, whole entry: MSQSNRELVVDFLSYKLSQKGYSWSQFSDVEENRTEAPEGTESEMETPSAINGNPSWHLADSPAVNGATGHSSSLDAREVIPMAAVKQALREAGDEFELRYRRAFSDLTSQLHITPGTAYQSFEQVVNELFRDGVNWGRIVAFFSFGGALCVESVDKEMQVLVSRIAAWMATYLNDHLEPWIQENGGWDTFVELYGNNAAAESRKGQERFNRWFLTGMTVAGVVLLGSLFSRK

Tests used:
[1] = molecular target: BCL-2/BAK (Homo sapiens, UniProt P10415); test: Screening on inhibitory activity for BCL-2/BAK binding (Cisbio HTRF kit); details: read-out: BCL-2/BAK IC50
[2] = system: RS4;11 cells; test: Inhibitory effect on proliferation of RS4;11 cells (CCK-8); format: cell-based, human; details: read-out: RS4;11 cells IC50, 72 h
[3] = molecular target: BCL-XL/BAK (Homo sapiens, UniProt Q07817); test: Screening on inhibitory activity for BCL-XL/BAK binding (Cisbio HTRF kit); details: read-out: BCL-XL/BAK IC50

Row | IC50 [1] | IC50 [2] | IC50 [3] | Compound
1 | 2.1 nM | 1.3 nM |  | CC1(C)CCC(CN2CCN(c3ccc(C(=O)NS(=O)(=O)c4ccc(NCC5CN(C(=O)C6CC6)CCO5)c([N+](=O)[O-])c4)c(Oc4cnc5[nH]ccc5c4)c3)CC2)=C(c2ccc(C(F)(F)F)cc2Cl)C1 (centres unmarked)
2 | 4.6 nM | 3 nM | 485 nM | CC1(C)CCC(CN2CCN(c3ccc(C(=O)NS(=O)(=O)c4ccc(NCC5CN(S(=O)(=O)C6CCC6)CCO5)c([N+](=O)[O-])c4)c(Oc4cnc5[nH]ccc5c4)c3)CC2)=C(c2ccc(C(F)(F)F)cc2Cl)C1 (centres unmarked)
3 | 3.7 nM | 3 nM | 266 nM | CC1(C)CCC(CN2CCN(c3ccc(C(=O)NS(=O)(=O)c4ccc(NCC5CN(S(=O)(=O)C6CC6)CCO5)c([N+](=O)[O-])c4)c(Oc4cnc5[nH]ccc5c4)c3)CC2)=C(c2ccc(C(F)(F)F)cc2Cl)C1 (centres unmarked)
